The record followed here is publication PMC6932907.

These are yes or no findings as the source states them, for the method shown. In cells and extracts the contact can be indirect. Some results given as binding are weak or reduced against the parent protein; the word gives no strength.

In assay [1] the target is T1, Ninjurin2 (human (endogenous in A172 cells, primary human glioma cells and human glioma tissue)) (UniProt Q9NZG7).
T1 sequence: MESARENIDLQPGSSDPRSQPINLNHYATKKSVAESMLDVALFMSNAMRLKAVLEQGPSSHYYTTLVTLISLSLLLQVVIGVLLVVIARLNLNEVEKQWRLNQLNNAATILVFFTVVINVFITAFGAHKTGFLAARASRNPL
Put plainly: co-IP; 1000 μg total cellular lysates of A172 and primary human glioma cells (P1/P2), pre-cleared with beads; endogenous Ninj2 captured by an anti-Ninj2 antibody overnight, then beads 6-8h; Ninj2-immunoprecipitated proteins tested by Western blotting. A general note: In western blotting, separated proteins are transferred to a membrane and probed.

The target of assay [2] is T1, Ninjurin2 (human (endogenous in A172 cells, primary human glioma cells and human glioma tissue)). Put plainly: co-IP; fresh human glioma tissue lysates from three patients (T1/2/3), same Co-IP assay (anti-Ninj2 capture, Western blotting).

Regarding “platelet-derived growth factor receptor β (from UniProt P09619 33-1106)”, the binding entry in assay [1] and in assay [2] was “binds” throughout.

Turning to “epidermal growth factor receptor (from UniProt P00533 25-1210)”, the binding entry in assay [1] and in assay [2] was “binds” each time.
